From article PMC8618245, “Mechanisms of CP190 Interaction with Architectural Proteins in Drosophila Melanogaster” (International Journal of Molecular Sciences, 2021)
Results are given in words; binding and its absence hold for the method and conditions named. Binding seen in cells or lysates may run through a third protein. Some binding calls cover weakened binding; strength is not graded here. Tags and fused reporters may be left off the sequences shown.

Chains of the proteins cited; added tags and fusions are not shown. Lines headed by an entry give the natural chain unless they say otherwise; changes in a name come on top.
UniProt Q9VS55: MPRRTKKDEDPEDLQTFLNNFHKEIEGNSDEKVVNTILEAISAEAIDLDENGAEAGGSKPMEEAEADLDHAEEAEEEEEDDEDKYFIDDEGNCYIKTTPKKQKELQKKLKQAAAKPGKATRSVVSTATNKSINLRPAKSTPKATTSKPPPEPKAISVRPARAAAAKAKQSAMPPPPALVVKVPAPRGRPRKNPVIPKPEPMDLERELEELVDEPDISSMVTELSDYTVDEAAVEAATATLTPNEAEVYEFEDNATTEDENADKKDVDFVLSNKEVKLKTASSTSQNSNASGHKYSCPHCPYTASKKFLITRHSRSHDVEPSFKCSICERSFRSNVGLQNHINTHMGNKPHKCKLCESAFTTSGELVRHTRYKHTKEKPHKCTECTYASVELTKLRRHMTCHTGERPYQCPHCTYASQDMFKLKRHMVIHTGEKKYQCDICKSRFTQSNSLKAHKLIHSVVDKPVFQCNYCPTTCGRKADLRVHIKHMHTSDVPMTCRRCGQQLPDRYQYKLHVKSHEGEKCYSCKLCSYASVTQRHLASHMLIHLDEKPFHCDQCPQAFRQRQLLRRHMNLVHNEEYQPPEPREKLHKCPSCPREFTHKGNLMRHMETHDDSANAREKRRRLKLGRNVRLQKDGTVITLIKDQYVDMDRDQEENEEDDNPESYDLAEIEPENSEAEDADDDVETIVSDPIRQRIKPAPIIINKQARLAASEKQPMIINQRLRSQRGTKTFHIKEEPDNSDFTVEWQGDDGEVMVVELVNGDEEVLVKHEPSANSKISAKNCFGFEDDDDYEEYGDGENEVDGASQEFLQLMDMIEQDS

Key:
[1] = target: GST-fused dCTCF 715–733 (Drosophila melanogaster) (UniProt Q9VS55); test: pull-down
[2] = target: T1, GST-fused Pita 220–232 (Drosophila melanogaster) (UniProt Q95RQ8); test: pull-down; GST pull-down from lysate of BL21 cells co-expressing the GST-fused C2H2 fragment and 6×His-Thioredoxin-fused CP190 1–126; glutathione agarose, buffer C (20 mM Tris pH 7.5, 150 mM NaCl, 10 mM MgCl2, 0.1 mM ZnCl2, 0.1% NP40, 10% glycerol, 1 mM DTT), +4 °C, washes with 500 mM NaCl
T1 sequence: KVLNKSSIRILNK

[3] = target: T2, GST-fused Pita 95–193 (Drosophila melanogaster) (UniProt Q95RQ8); test: as above
T2 sequence: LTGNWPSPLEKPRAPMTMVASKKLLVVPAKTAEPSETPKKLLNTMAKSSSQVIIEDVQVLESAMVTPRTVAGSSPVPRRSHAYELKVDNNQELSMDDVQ

[4] = target: T3, GST-fused Su(Hw) 150–187 (Drosophila melanogaster) (UniProt P08970); test: as above
T3 sequence: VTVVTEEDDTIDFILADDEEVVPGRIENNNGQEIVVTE

[5] = target: T4, GST-fused Su(Hw) 1–150 (Drosophila melanogaster) (UniProt P08970); test: as above
T4 sequence: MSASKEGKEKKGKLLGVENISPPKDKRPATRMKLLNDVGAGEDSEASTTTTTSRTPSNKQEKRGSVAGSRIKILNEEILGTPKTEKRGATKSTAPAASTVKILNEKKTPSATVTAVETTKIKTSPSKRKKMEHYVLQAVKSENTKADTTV

B1: 6×His-Thioredoxin-fused CP190 1–126 (BTB domain) (domain or fragment, UniProt Q24478 1-126)
chain: MGEVKSVKVDNWGVFFLQKLQNFFNKTDYCDLTLQFRDNSQLKVHRLVLSACTDYFNVLEQTCEIVDDALIMPNEFQADVVVPIVNFMYTGTLEFELKMYGKLLRTAKEMNMTVLLKLLEAHRRTM
How did the binding [1] turn out when B1 was run?
Its binding is “binds”.

What about the binding [2] of the same binder?
The binding was “binds”.

And the binding [3]?
The binding was “binds”.

What about the binding [4] of the same binder?
The binding was “binds weakly”.

And the binding [5]?
The binding was “binds”.
